From PubChem BioAssay AID590 (National Center for Advancing Translational Sciences (NCATS), 2007)
Where “and” joins values, the source holds several entries; their conditions need not be identical. Identical values can stand only once. Among all 59,000 compounds or so, about 6,500 (11%) were called active. The shares of active, inactive and inconclusive entries below differ from those in the screen. Cut-off read from the data, not from the text of the source: active = max dye-equivalent concentration above about 10 nM; inconclusive = mostly about 1.1 nM to 9.6 nM; inactive = weaker than that. More than one record can exist for a structure, and the calls need not agree.

Test: qHTS Assay for Spectroscopic Profiling in A350 Spectral Region
Details: Compound autofluorescence, 340/450 nm, Alexa 350 dye-equivalents; active compounds read high
For `O=C(O)CCCC(=O)Nc1ccc(C(=O)N2CCCCC2)cc1`, the max dye-equivalent concentration was “inactive”.
With `Cc1c(NC(=O)c2cccc(S(=O)(=O)N3CCOCC3)c2)c(=O)n(-c2ccccc2)n1C` the max dye-equivalent concentration was inconclusive: 1.1e-09 M.
With `C=CCNC(=O)C1CC(=O)N(c2ccc(OCC(=O)Nc3ccccc3)cc2)C1` (configuration not stated) the max dye-equivalent concentration was active: 2.9e-07 M.
With `C1CN(c2nc3nonc3n3nnnc23)CCO1` the max dye-equivalent concentration was inconclusive: 2.2e-09 M.
In the case of `Cn1c(C[C@@H](O)c2nc3ccccc3n2C)nc2ccccc21`, the max dye-equivalent concentration is reported as active: 1.8e-08 M.
For `CCn1c(N2CCN(S(=O)(=O)c3ccccc3C(F)(F)F)CC2)nc2ccccc21`, the max dye-equivalent concentration was inconclusive: 1.1e-09 M.
For `Cc1nnc(-c2ccccc2)c[n+]1[O-]`, the max dye-equivalent concentration was “inactive”.
For `Cn1c(=O)c(-c2ccccc2)nc2cnc(OCc3ccccc3)nc21`, the max dye-equivalent concentration was inconclusive: 5.2e-09 M.
With `CC(C)N=c1cc2n(-c3ccc(Cl)cc3)c3ccccc3nc-2cc1Nc1ccc(Cl)cc1` the max dye-equivalent concentration was active: 2.4e-07 M and the outcome was “inactive”.
For `CCCC(C(=O)NCc1ccco1)N(C(=O)CNS(=O)(=O)c1ccccc1)C1CCCC1` (configuration not stated), the max dye-equivalent concentration was inconclusive: 6.5e-09 M.
In the case of `CCOC(=O)Cn1c(=O)c2c(nc3n2CCS3)n(C)c1=O`, the max dye-equivalent concentration is reported as inconclusive: 3.5e-09 M.
For `COc1cccc(-c2nnc(SCC(=O)OC(C)C)n2Cc2ccco2)c1`, the max dye-equivalent concentration was “inactive”.
In the case of `C=C(C)CSc1nc2ncccc2[nH]1`, the max dye-equivalent concentration is reported as inconclusive: 6.4e-09 M.
With `COc1cccc(Cn2c(=O)c(-c3cn(C)c4ccccc34)nc3cncnc32)c1` the max dye-equivalent concentration was “inactive”.
With `N=C(N)SC(c1ccccc1)c1ccccc1` the max dye-equivalent concentration was “inactive”.
For `N[C@@H]1CONC1=O`, the max dye-equivalent concentration was active: 3.4e-08 M and the outcome was “inactive”.
In the case of `CCNc1nc(NCC)n2c(SCc3ccc(F)cc3)nnc2n1`, the max dye-equivalent concentration is reported as inconclusive: 2.4e-09 M.
In the case of `COc1ccc(N2C(=O)CSC23CCCCC3)cc1`, the max dye-equivalent concentration is reported as “inactive”.
For `COc1ccc(CCn2c(=S)[nH]c3cc(C(=O)NCc4ccco4)ccc3c2=O)cc1OC`, the max dye-equivalent concentration was “inactive”.
In the case of `Cc1cccnc1NC(=O)c1ccc2nc(N)sc2c1`, the max dye-equivalent concentration is reported as inconclusive: 3.5e-09 M.
For `O=c1[nH]c(-c2ccc(Cl)cc2)nc2c1cnn2-c1ccccc1`, the max dye-equivalent concentration was active: 2.2e-08 M.
In the case of `CCC(C)(C)NC(=O)C(c1cccnc1)N(CCOC)C(=O)Cn1nnc2ccccc21` (configuration not stated), the max dye-equivalent concentration is reported as inconclusive: 1.7e-09 M.
With `COc1ccc(-n2c(=O)c(C)nc3cnc(Nc4ccccc4)nc32)cc1` the max dye-equivalent concentration was “inactive”.
With `CC(=O)NCCn1c(SCC(=O)NCc2ccco2)nc2ccccc2c1=O` the max dye-equivalent concentration was inconclusive: 4.4e-09 M.
In the case of `CC[C@]1(C)CC(=O)NC1=O`, the max dye-equivalent concentration is reported as inconclusive: 4.9e-09 M and inconclusive: 5.5e-09 M.
With `O=C(NCc1ccccn1)c1cc(-c2ccccc2)on1` the max dye-equivalent concentration was inconclusive: 6.2e-09 M.
With `O=C(Cn1ncc2c(=O)oc3ccccc3c21)N1CCCc2ccccc21` the max dye-equivalent concentration was inconclusive: 1.6e-09 M.
In the case of `CC(=O)NC(O)C(=O)c1ccco1` (configuration not stated), the max dye-equivalent concentration is reported as inconclusive: 5.9e-09 M.
With `CCc1c(O)nc(SCC(=O)N2CCOCC2)n(-c2ccccc2)c1=O` the max dye-equivalent concentration was inconclusive: 7.3e-09 M.
For `COCCNc1nc(-c2ccoc2)nc2ccccc12`, the max dye-equivalent concentration was “inactive”.
With `C=CCNC(=O)CCNS(=O)(=O)c1ccc(Br)cc1` the max dye-equivalent concentration was inconclusive: 1.1e-09 M.
With `CN(C)c1ncc2ncc(=O)n(C)c2n1` the max dye-equivalent concentration was inconclusive: 5.3e-09 M.
In the case of `NC(=O)c1cc(-c2ccccc2)nc(N2CCOCC2)n1`, the max dye-equivalent concentration is reported as inconclusive: 1.5e-09 M.
For `CCc1nc(NCC2CCCO2)c2oc3ccccc3c2n1` (configuration not stated), the max dye-equivalent concentration was “inactive”.
For `CCCn1c(NCc2ccc(C)o2)nc2ccccc21`, the max dye-equivalent concentration was inconclusive: 2.4e-09 M.
With `CN(C)c1ncc2nc(-c3ccccc3)c(=O)n(CCc3ccccc3)c2n1` the max dye-equivalent concentration was active: 2.2e-08 M.
In the case of `Cc1cccc(-n2c(=O)[nH]c3c(C(N)=O)nc(C(C)C)nc32)c1`, the max dye-equivalent concentration is reported as active: 1.4e-07 M.
In the case of `COc1ccc2cc(CN(Cc3cccnc3)S(=O)(=O)c3ccccc3)c(=O)[nH]c2c1`, the max dye-equivalent concentration is reported as inconclusive: 3.8e-09 M.
In the case of `CC1CCCCC1NC(=O)c1nn(C)c(=O)c2ccccc12` (configuration not stated), the max dye-equivalent concentration is reported as inconclusive: 1.8e-09 M.
For `CCOC(=O)N1CCC(NC(=O)CSc2cc(=O)n(CC)c3ccccc23)CC1`, the max dye-equivalent concentration was inconclusive: 3.5e-09 M.
With `COc1ccc(CC(=O)c2ccccc2C(=O)O)cc1` the max dye-equivalent concentration was “inactive”.
In the case of `Cc1cc(-c2nn3c(C)nnc3s2)ccc1NC(=O)C(C)(C)C`, the max dye-equivalent concentration is reported as inconclusive: 2.7e-09 M.
For `O=c1cc(CF)[nH]c(=S)[nH]1`, the max dye-equivalent concentration was “inactive”.
For `Cc1cc(=O)oc(C)c1C(=O)NCCCN1CCN(c2ccc(F)cc2)CC1`, the max dye-equivalent concentration was inconclusive: 1.6e-09 M.
In the case of `O=C(NC1CCCCC1)NC1CC2CCC(C1)N2C(=O)NC1CCCCC1` (configuration not stated), the max dye-equivalent concentration is reported as inconclusive: 9.7e-09 M.
In the case of `O=C(Nc1cccnc1)Nc1ccc(F)c(Cl)c1`, the max dye-equivalent concentration is reported as inconclusive: 1.7e-09 M.
With `COc1cc(OC)cc(C(=O)N(CN2CCCC2=O)c2ccccc2OC)c1` the max dye-equivalent concentration was “inactive”.
In the case of `O=c1[nH]c(N2CCc3ccccc3C2)nc2c1CCC2`, the max dye-equivalent concentration is reported as inconclusive: 1.1e-09 M.
With `O=C(O)Cc1cc2c(s1)CCCCC2` the max dye-equivalent concentration was active: 8.2e-08 M.
With `Cc1cc(Cl)ccc1OCC(=O)OC(C)C(=O)N(C)C` (configuration not stated) the max dye-equivalent concentration was inconclusive: 1.8e-09 M.
With `CSc1nc2ccc(NS(=O)(=O)c3ccc(Cl)s3)cc2s1` the max dye-equivalent concentration was inconclusive: 1.9e-09 M.
In the case of `Cc1ccc(N2CC(C(=O)Nc3ccncc3)CC2=O)cc1` (configuration not stated), the max dye-equivalent concentration is reported as inconclusive: 1.6e-09 M.
With `O=C(O)/C=C/c1ccc(O)c(O)c1` the max dye-equivalent concentration was inconclusive: 6.7e-09 M.
In the case of `CC(C)(C)NC[C@H](O)COc1cccc2c1C[C@@H](O)[C@@H](O)C2`, the max dye-equivalent concentration is reported as “inactive”.
With `CCN1CCN(c2nc3c(C)cccn3c(=O)c2/C=C(\C#N)S(=O)(=O)c2ccccc2)CC1` the max dye-equivalent concentration was active: 2e-08 M.
For `Cc1cc(C)cc(NC(=O)C2CCCN(c3nccc(C)n3)C2)c1` (configuration not stated), the max dye-equivalent concentration was “inactive”.
In the case of `Cc1cccc(NC(=O)c2cc(NC(=O)c3ccco3)ccc2Cl)n1`, the max dye-equivalent concentration is reported as “inactive”.
With `N#CC1=C(SCC(=O)NCc2ccccc2)NC(=O)CC1c1ccco1` (configuration not stated) the max dye-equivalent concentration was inconclusive: 2.3e-09 M.
In the case of `CC(=O)O[C@]1(C(C)=O)CC[C@@H]2[C@@H]3C=C(Cl)C4=CC(=O)[C@H]5C[C@@H]5[C@]4(C)[C@H]3CC[C@]21C`, the max dye-equivalent concentration is reported as inconclusive: 4.4e-09 M.
For `Cc1ccc(-c2nc3cc(NC(=O)C(C)C)ccc3o2)cc1C`, the max dye-equivalent concentration was inconclusive: 9.5e-09 M.
